Reference: publication PMC9271913

T1: Retention in endoplasmic reticulum 1 (Rer1), mouse (mouse (endogenous in brain)) (UniProt Q9CQU3)
T1 sequence: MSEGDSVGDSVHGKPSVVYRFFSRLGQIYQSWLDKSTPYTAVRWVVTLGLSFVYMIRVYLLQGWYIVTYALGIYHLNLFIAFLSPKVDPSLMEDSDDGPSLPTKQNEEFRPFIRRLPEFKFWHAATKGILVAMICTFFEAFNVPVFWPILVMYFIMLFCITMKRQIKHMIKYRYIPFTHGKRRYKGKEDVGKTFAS

B1: Nebulette isoform X2 (protein, UniProt Q0II04 1-452)
chain: MKVPVSGDVKEETEEENVEQEENQEAKVSLKPVIEDLSMELARKCTELISDIHYKEEYKKSKDKCTFVTDTPMLNHVKNIGAFISEAKYKGTIKADLSNCLYKDMPATIDSVFAREVSQLQSEVAYKQKHEAEKGFSDYTHMKEPPEVRRAMEVNRHQSNISYRKDMQGTHTYTAELDRPDIKKATQISKIISDAEYKKGQGIVNKEPSVIGRPDFEHAVGASKLSSQVKYKEKFDNEMKEKSHHYNPLGSAFFRQHQFAAVLASDWEYKRDFEENKGLYHFDAEAPEHLHHKGNATLQSQVKYREEYEKNKGKSMLEFVETPSYQSSKEAQKMQSEKVYKEDFEKEIKGRSSLDLDKTPAFLHVKHITNLMREKEYKKDLENEIKGKGMELSSEVLDIQRAKRASEMASEKDYKRDLETEIKGKGMQVSTDTLDVQRAKRASEMASQVRMV
B2: Transcriptional activator protein Pur-beta (protein, UniProt O35295 1-324)
chain: MADGDSGSERGGGGGGGGGPGGFQPAPRGGGGGGGGPGGEQETQELASKRLDIQNKRFYLDVKQNAKGRFLKIAEVGAGGSKSRLTLSMAVAAEFRDSLGDFIEHYAQLGPSSPEQLAAGAEEGGGPRRALKSEFLVRENRKYYLDLKENQRGRFLRIRQTVNRGGGGFGGGPGPGGLQSGQTIALPAQGLIEFRDALAKLIDDYGGDEDELAGGPGGGAGGPGGGLYGELPEGTSITVDSKRFFFDVGCNKYGVFLRVSEVKPSYRNAITVPFKAWGKFGGAFCRYADEMKEIQERQRDKLYERRGGGSGGGDESEGEEVDED
B3: ARF GTPase-activating protein GIT1 isoform X2 (protein, UniProt Q68FF6 1-770)
chain: MSRKGPRAEVCADCSAPDPGWASISRGVLVCDECCSVHRSLGRHISIVKHLRHSAWPPTLLQMVHTLASNGANSIWEHSLLDPAQVQSGRRKANPQDKVHPIKSEFIRAKYQMLAFVHKLPCRDDDGVTAKDLSKQLHSSVRTGNLETCLRLLSLGAQANFFHPEKGTTPLHVAAKAGQTLQAELLVVYGADPGSPDVNGRTPIDYARQAGHHELAERLVECQYELTDRLAFYLCGRKPDHKNGHYIIPQMADRSRQKCMSQSLDLSELAKAAKKKLQALSNRLFEELAMDVYDEVDRRENDAVWLATQNHSTLVTERSAVPFLPVNPEYSATRNQGRQKLARFNAREFATLIIDILSEAKRRQQGKSLSSPTDNLELSARSQSELDDQHDYDSVASDEDTDQEPLPSAGATRNNRARSMDSSDLSDGAVTLQEYLELKKALATSEAKVQQLMKVNSSLSDELRRLQREIHKLQAENLQLRQPPGPVPPPSLPSERAEHTLMGPGGSTHRRDRQAFSMYEPGSALKPFGGTPGDELATRLQPFHSTELEDDAIYSVHVPAGLYRIRKGVSASSVPFTPSSPLLSCSQEGSRHASKLSRHGSGADSDYENTQSGDPLLGLEGKRFLELSKEDELHPELESLDGDLDPGLPSTEDVILKTEQVTKNIQELLRAAQEFKHDSFVPCSEKIHLAVTEMASLFPKRPALEPVRSSLRLLNASAYRLQSECRKTVPPEPGAPVDFQLLTQQVIQCAYDIAKAAKQLVTITTREKKQ
B4: O-GlcNAc transferase subunit p110 (protein, UniProt Q8CGY8 1-1046)
chain: MASSVGNVADSTEPTKRMLSFQGLAELAHREYQAGDFEAAERHCMQLWRQEPDNTGVLLLLSSIHFQCRRLDRSAHFSTLAIKQNPLLAEAYSNLGNVYKERGQLQEAIEHYRHALRLKPDFIDGYINLAAALVAAGDMEGAVQAYVSALQYNPDLYCVRSDLGNLLKALGRLEEAKACYLKAIETQPNFAVAWSNLGCVFNAQGEIWLAIHHFEKAVTLDPNFLDAYINLGNVLKEARIFDRAVAAYLRALSLSPNHAVVHGNLACVYYEQGLIDLAIDTYRRAIELQPHFPDAYCNLANALKEKGSVAEAEDCYNTALRLCPTHADSLNNLANIKREQGNIEEAVRLYRKALEVFPEFAAAHSNLASVLQQQGKLQEALMHYKEAIRISPTFADAYSNMGNTLKEMQDVQGALQCYTRAIQINPAFADAHSNLASIHKDSGNIPEAIASYRTALKLKPDFPDAYCNLAHCLQIVCDWTDYDERMKKLVSIVAEQLEKNRLPSVHPHHSMLYPLSHGFRKAIAERHGNLCLDKINVLHKPPYEHPKDLKLSDGRLRVGYVSSDFGNHPTSHLMQSIPGMHNPDKFEVFCYALSPDDGTNFRVKVMAEANHFIDLSQIPCNGKAADRIHQDGIHILVNMNGYTKGARNELFALRPAPIQAMWLGYPGTSGALFMDYIITDQETSPAEVAEQYSEKLAYMPHTFFIGDHANMFPHLKKKAVIDFKSNGHIYDNRIVLNGIDLKAFLDSLPDVKIVKMKCPDGGDNPDSSNTALNMPVIPMNTIAEAVIEMINRGQIQITINGFSISNGLATTQINNKAATGEEVPRTIIVTTRSQYGLPEDAIVYCNFNQLYKIDPSTLQMWANILKRVPNSVLWLLRFPAVGEPNIQQYAQNMGLPQNRIIFSPVAPKEEHVRRGQLADVCLDTPLCNGHTTGMDVLWAGTPMVTMPGETLASRVAASQLTCLGCLELIAKSRQEYEDIAVKLGTDLEYLKKIRGKVWKQRISSPLFNTKQYTMELERLYLQMWEHYAAGNKPDHMIKPVEVTESA
B5: 1-phosphatidylinositol 4,5-bisphosphate phosphodiesterase beta-1 (protein, UniProt Q9Z1B3 1-1216)
chain: MAGAQPGVHALQLKPVCVSDSLKKGTKFVKWDDDSTIVTPIILRTDPQGFFFYWTDQNKETELLDLSLVKDARCGKHAKAPKDPKLRELLDVGNIGHLEQRMITVVYGPDLVNISHLNLVAFQEEVAKEWTNEVFSLATNLLAQNMSRDAFLEKAYTKLKLQVTPEGRIPLKNIYRLFSADRKRVETALEACSLPSSRNDSIPQEDFTPDVYRVFLNNLCPRPEIDNIFSEFGAKSKPYLTVDQMMDFINLKQRDPRLNEILYPPLKQEQVQVLIEKYEPNSSLAKKGQMSVDGFMRYLSGEENGVVSPEKLDLNEDMSQPLSHYFINSSHNTYLTAGQLAGNSSVEMYRQVLLSGCRCVELDCWKGRTAEEEPVITHGFTMTTEISFKEVIEAIAECAFKTSPFPILLSFENHVDSPKQQAKMAEYCRLIFGDALLMEPLEKYPLESGVPLPSPMDLMYKILVKNKKKSHKSSEGSGKKKLSEQASNTYSDSSSVFEPSSPGAGEADTESDDDDDDDDCKKSSMDEGTAGSEAMATEEMSNLVNYIQPVKFESFEISKKRNKSFEMSSFVETKGLEQLTKSPVEFVEYNKMQLSRIYPKGTRVDSSNYMPQLFWNAGCQMVALNFQTVDLAMQINMGMYEYNGKSGYRLKPEFMRRPDKHFDPFTEGIVDGIVANTLSVKIISGQFLSDKKVGTYVEVDMFGLPVDTRRKAFKTKTSQGNAVNPVWEEEPIVFKKVVLPSLACLRIAAYEEGGKFIGHRILPVQAIRPGYHYICLRNERNQPLTLPAVFVYIEVKDYVPDTYADVIEALSNPIRYVNLMEQRAKQLAALTLEDEEEVKKEADPGETSSEAPSETRTTPAENGVNHTASLAPKPPSQAPHSQPAPGSVKAPAKTEDLIQSVLTEVEAQTIEELKQQKSFVKLQKKHYKEMKDLVKRHHKKTTELIKEHTTKYNEIQNDYLRRRAALEKSAKKDSKKKSEPSSPDHGSSAIEQDLAALDAEMTQKLIDLKDKQQQQLLNLRQEQYYSEKYQKREHIKLLIQKLTDVAEECQNNQLKKLKEICEKEKKELKKKMDKKRQEKITEAKSKDKSQMEEEKTEMIRSYIQEVVQYIKRLEEAQSKRQEKLVEKHNEIRQQILDEKPKLQTELEQEYQDKFKRLPLEILEFVQEAMKGKISEDSNHGSAPPSLASDAAKVNLKSPSSEEIERENPGREFDTPL
B6: Glucose 1,6-bisphosphate synthase (protein, UniProt Q8CAA7 1-621)
chain: MAENADDDLNSNLLHAPYLTGDPQLDTAIGQWLRWDKNPKTKEQIENLLRNGMNKELRDRLCCRMTFGTAGLRSAMGAGFCYINDLTVIQSTQGMYKYLERCFSDFKQRGFVVGYDTRGQVTSSCSSQRLAKLTAAVLLAKDIPVYLFSRYVPTPFVPYAVQELKAVAGVMITASHNRKEDNGYKVYWETGAQITSPHDKEILKCIEECVEPWNDSWNDNLVDTSPLKKDPLQDICKKYMEDLKKICFYRDLNSKTTLKFVHTSFHGVGHDYVQLAFQVFGFKPPIPVPEQKDPDPDFSTVKCPNPEEGESVLELSLRLAEKENARIVLATDPDADRLAVAELQENGRWKVFTGNELAALFGWWMFDCWKKNKPNADVKNVYMLATTVSSKILKAIALKEGFHFEETLPGFKWIGSRIKDLLGNGKEVLFAFEESIGFLCGTSVLDKDGVSAAAVVAEMASFLDTRKVTLMEQLTKVYEIYGYHMSKTSYFLCYDPPTIKTIFERIRNFESPKEYPKFCGAFAILHVRDITTGYDSSQPNKKSVLPVSKNSQMITFTFQNGCVATLRTSGTEPKIKYYAEMCASPGQSDTTFLEEELKKLIDALIENFLEPSKNALVWRSV
B7: Leukotriene A(4) hydrolase (protein, UniProt P24527 1-611)
chain: MPEVADTCSLASPASVCRTQHLHLRCSVDFARRTLTGTAALTVQSQEENLRSLTLDTKDLTIEKVVINGQEVKYTLGESQGYKGSPMEISLPIALSKNQEIVIEISFETSPKSSALQWLTPEQTSGKQHPYLFSQCQAIHCRAILPCQDTPSVKLTYTAEVSVPKELVALMSAIRDGEAPDPEDPSRKIYRFNQRVPIPCYLIALVVGALESRQIGPRTLVWSEKEQVEKSANEFSETESMLKIAEDLGGPYVWGQYDLLVLPPSFPYGGMENPCLTFVTPTLLAGDKSLSNVIAHEISHSWTGNLVTNKTWDHFWLNEGHTVYLERHICGRLFGEKFRHFHALGGWGELQNTIKTFGESHPFTKLVVDLKDVDPDVAYSSIPYEKGFALLFYLEQLLGGPEVFLGFLKAYVKKFSYQSVTTDDWKSFLYSHFKDKVDLLNQVDWNTWLYAPGLPPVKPNYDVTLTNACIALSQRWVTAKEEDLSSFSIADLKDLSSHQLNEFLAQVLQKAPLPLGHIKRMQEVYNFNAINNSEIRFRWLRLCIQSKWEEAIPLALKMATEQGRMKFTRPLFKDLAAFDKSHDQAVHTYQEHKASMHPVTAMLVGRDLKVD
B8: RasGAP-activating-like protein 1 (protein, UniProt Q9Z268 1-799)
chain: MAKSGSLSIRVVEGRALPAKDVSGSSDPYCLVKVDDQVVARTATIWRSLSPFWGEEYTVHLPLDFHHLAFYVLDEDTVGHDDIIGKISLSKEAITADPRGIDSWINLSRVDPDAEVQGEVCLDVKLLEDARGRCLRCHVRQARDLAPRDISGTSDPFARVFWGNHSLETSTIKKTRFPHWDEVLELREAPGTTSPLRVELWDWDMVGKNDFLGMVEFTPQTLQQKPPNGWFRLLPFPRAEDSGGSLGALRLKVRLTEDRVLPSQYYQPLMELLLESVQGPAEEDTTSPLALLEELASGDCRQDLATKLVKLFLGRGLAGPFLDYLTRREVARTNDPNTLFRSNSLASKSMEQFMKLVGMRYLHEVLRPVISRVFEEKKYMELDPCKMDLNRSRRISFKGTPTEEQVRETSLGLLTGYLGSVVDAIVSSTGRCPLALRLAFKQLQRCVEKRFSGIEHQDVKYLAISGFLFLRFFAPAILTPKLFDLRDQHADPQTSRSLLLLAKAVQSIGNLGQQLGQGKEQWLAPLHPFLLQSISRVRDFLDQLVDVDEDEEAGGPACALVQPSTIVREGFLLKRKEEPGGLATRFAFKKRYFRLSGRDLSYSKTPEWQVHTSIPLSCIRAVEHVDEGAFQLPHVMQVVTQDGAGTSHTTYLQCKNVNDLNQWLSALRKASAPNPGKLVACHPGAFRSGRWTCCLQAERSAAGCSRTHSAITLGDWSDPLDPDAEAQAVYRQLLLGRDQLRLKLLEDSSLDTEVDPGRDSSATDGPCAEVLAQQRAATTHLLQVLEDLEQAHEEFQKRG

Each binder was assayed against T1, Retention in endoplasmic reticulum 1 (Rer1), mouse (mouse (endogenous in brain)) (assay: affinity purification with mass spectrometry; anti-RER1 immunoprecipitation of hippocampus lysates (gentle RIPA lysis buffer) of PTZ-induced Nedd4-2+/- and wild-type mice, LC-MS/MS; IgG-precipitated proteins subtracted; proteins present in all four replicates of a group defined as positive).

binding, binds:
B1, B2, B3, B4, B5, B6, B7, B8

These are yes or no findings as the source states them, for the method shown. Binding seen in cells or lysates may run through a third protein. These calls come from enrichment with a bait or labelling near it, and not all partners need be listed. Tags and fused reporters may be left off the sequences shown.
